Each structure is given as a SMILES string. Where a name gives a salt, the structure may show the parent alone. The list shows a part of the results. Hit calls seldom repeat between salt and free forms of one compound.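 Kinases, fused to nanoluciferase, were expressed in K562 cells; luminescence was measured every 4 h from 2 to 18 h as percent of control (DMSO = 100%, positive control = 0%). A time point is decreased if signal falls significantly (2 sigma). Hits were called by the authors by a rule that is not shown; the count of time points alone does not decide it.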

The chains behind the UniProt entries cited, without tags or fusion partners.
UniProt P29317, whole entry: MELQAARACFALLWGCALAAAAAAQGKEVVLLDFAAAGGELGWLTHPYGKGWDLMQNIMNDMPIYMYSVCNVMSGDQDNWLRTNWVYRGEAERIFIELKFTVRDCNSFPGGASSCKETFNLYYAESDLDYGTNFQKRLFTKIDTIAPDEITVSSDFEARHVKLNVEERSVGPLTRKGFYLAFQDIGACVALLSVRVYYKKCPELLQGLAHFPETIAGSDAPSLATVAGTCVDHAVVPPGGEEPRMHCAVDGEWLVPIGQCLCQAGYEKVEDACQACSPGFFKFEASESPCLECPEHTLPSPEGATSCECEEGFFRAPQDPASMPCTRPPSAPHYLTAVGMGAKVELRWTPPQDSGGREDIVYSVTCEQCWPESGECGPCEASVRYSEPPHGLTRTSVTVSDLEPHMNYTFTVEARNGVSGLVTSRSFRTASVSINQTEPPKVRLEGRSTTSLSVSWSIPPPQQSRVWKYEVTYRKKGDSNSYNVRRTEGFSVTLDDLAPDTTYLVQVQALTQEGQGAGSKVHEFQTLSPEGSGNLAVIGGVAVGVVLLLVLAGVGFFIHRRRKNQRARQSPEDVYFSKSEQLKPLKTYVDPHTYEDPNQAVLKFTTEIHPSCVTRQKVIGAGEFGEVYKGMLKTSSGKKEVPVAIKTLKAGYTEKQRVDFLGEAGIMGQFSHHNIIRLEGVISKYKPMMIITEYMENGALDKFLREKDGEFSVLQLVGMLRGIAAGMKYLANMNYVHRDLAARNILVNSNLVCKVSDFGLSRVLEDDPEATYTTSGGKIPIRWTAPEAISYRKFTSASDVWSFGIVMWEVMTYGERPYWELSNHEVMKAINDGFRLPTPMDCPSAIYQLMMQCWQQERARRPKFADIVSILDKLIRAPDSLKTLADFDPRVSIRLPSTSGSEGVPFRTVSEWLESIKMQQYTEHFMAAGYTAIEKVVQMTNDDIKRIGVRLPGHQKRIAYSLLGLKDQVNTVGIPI
UniProt P21860, whole entry: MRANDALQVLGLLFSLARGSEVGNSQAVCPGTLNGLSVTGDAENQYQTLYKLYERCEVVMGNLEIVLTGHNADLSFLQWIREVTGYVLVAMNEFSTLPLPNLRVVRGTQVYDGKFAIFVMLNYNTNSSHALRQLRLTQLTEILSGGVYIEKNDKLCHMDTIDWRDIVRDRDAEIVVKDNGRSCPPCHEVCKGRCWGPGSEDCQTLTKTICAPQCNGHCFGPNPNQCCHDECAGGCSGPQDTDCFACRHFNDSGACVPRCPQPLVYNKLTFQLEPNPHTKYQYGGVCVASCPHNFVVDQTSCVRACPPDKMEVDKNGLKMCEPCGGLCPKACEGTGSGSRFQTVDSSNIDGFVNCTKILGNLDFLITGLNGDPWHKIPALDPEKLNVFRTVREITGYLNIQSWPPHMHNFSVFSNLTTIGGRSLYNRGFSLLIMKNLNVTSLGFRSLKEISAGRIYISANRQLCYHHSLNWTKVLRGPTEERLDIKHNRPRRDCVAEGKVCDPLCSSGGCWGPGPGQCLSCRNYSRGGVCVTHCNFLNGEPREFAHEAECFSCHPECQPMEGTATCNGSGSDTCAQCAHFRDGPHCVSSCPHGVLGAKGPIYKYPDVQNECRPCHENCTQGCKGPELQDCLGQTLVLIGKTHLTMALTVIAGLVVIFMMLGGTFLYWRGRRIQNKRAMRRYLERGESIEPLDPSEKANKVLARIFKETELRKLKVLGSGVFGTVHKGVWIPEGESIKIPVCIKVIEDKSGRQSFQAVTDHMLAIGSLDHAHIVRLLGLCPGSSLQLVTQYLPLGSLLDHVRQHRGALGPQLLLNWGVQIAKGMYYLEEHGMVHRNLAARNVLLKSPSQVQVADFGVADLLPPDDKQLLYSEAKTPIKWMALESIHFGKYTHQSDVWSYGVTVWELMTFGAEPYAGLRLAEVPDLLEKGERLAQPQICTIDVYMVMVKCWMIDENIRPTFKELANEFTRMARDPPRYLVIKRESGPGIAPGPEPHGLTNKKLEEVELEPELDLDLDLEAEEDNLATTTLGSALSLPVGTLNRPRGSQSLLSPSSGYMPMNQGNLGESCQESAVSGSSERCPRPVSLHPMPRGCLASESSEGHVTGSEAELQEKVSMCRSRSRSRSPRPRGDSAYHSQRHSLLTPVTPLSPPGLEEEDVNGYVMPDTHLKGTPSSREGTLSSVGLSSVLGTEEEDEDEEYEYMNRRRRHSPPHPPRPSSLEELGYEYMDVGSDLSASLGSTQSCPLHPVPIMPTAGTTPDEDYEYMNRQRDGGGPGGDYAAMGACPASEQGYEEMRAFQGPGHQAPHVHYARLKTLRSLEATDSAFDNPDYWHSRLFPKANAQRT

In one assay the target is EPHA2 (UniProt P29317). Briefly: kinase-Nluc reporter destabilization hit call (1 = scored as downregulated) (binary); higher = compound decreases kinase abundance. Particulars: 10 µM; K562; 2-18 h.
In the case of `COc1cc2c(-c3cnn4cc(N5CCC(N6CCN(C)CC6)CC5)cnc34)ccnc2cc1F` [ALK2-IN-4 (succinate)], the “kinase-Nluc reporter destabilization hit call” value is inactive: 0.

`C#Cc1cccc(Nc2ncnc3cc(OCCOC)c(OCCO)cc23)c1` [Desmethyl Erlotinib]: the “kinase-Nluc reporter destabilization hit call” value was inactive: 0. Regarding `N=C(N)NC(=O)c1nc(Cl)c(N)nc1N` [Amiloride (hydrochloride)], the “kinase-Nluc reporter destabilization hit call” value was inactive: 0. As to `N#CC[C@H](C1CCCC1)n1cc(-c2ncnc3[nH]ccc23)cn1` [Ruxolitinib (phosphate)], the “kinase-Nluc reporter destabilization hit call” value is inactive: 0. On the same count and under the same terms, the figure for `CC(=O)c1c(C)c2cnc(Nc3ccc(N4CCNCC4)cn3)nc2n(C2CCCC2)c1=O` [Palbociclib (monohydrochloride)] is inactive: 0; for `O=C(O)c1ccc2c(c1)nc(Nc1cccc(Cl)c1)c1ccncc12` [Silmitasertib (sodium salt)] it is inactive: 0. With `COc1ccnc(C[S+]([O-])c2nc3cc(-n4cccc4)ccc3[nH]2)c1C` (stereo unspecified) [Ilaprazole (sodium)], the “kinase-Nluc reporter destabilization hit call” value was inactive: 0. For the molecule `CC(C)NC[C@@H](C(=O)N1CCN(c2ncnc3c2[C@H](C)C[C@H]3O)CC1)c1ccc(Cl)cc1` [Ipatasertib (dihydrochloride)], the “kinase-Nluc reporter destabilization hit call” value is inactive: 0. Consider `CC(=O)c1c(C)c2cnc(Nc3ccc(N4CCNCC4)cn3)nc2n(C2CCCC2)c1=O` [Palbociclib (isethionate)], for which the “kinase-Nluc reporter destabilization hit call” value is inactive: 0. With `O=C(c1ccc(F)c(F)c1Nc1ccc(I)cc1F)N1CC(O)([C@@H]2CCCCN2)C1` [Cobimetinib (hemifumarate)], the “kinase-Nluc reporter destabilization hit call” value is inactive: 0. On the same count and under the same terms, the figure for `COC(=O)[C@H](CC(C)C)NC(=O)c1ccc(NC[C@@H](N)CS)cc1-c1cccc2ccccc12` is inactive: 0; for `N#CCNC(=O)c1ccc(-c2ccnc(Nc3ccc(N4CCOCC4)cc3)n2)cc1` [Momelotinib] it is inactive: 0. With `CC(=O)Nc1cccc(-n2c(=O)n(C3CC3)c(=O)c3c(Nc4ccc(I)cc4F)n(C)c(=O)c(C)c32)c1` [Trametinib], the “kinase-Nluc reporter destabilization hit call” value was inactive: 0. For `O=C(Nc1cnn2ccc(N3CCC[C@@H]3c3cc(F)ccc3F)nc12)N1CC[C@H](O)C1` [Larotrectinib sulfate], the “kinase-Nluc reporter destabilization hit call” value is inactive: 0.

For the molecule `C#Cc1cccc(Nc2ncnc3cc4c(cc23)OCCOCCOCCO4)c1` [Icotinib (Hydrochloride)], the “kinase-Nluc reporter destabilization hit call” value was inactive: 0. Regarding `COc1cc2nccc(Oc3ccc(NC(=O)C4(C(=O)Nc5ccc(F)cc5)CC4)cc3)c2cc1OC` [Cabozantinib (S-malate)], the “kinase-Nluc reporter destabilization hit call” value is inactive: 0.

Turning to `N#CC[C@H](C1CCCC1)n1cc(-c2ncnc3[nH]ccc23)cn1` [Ruxolitinib], the “kinase-Nluc reporter destabilization hit call” value was inactive: 0. As for `CS(=O)(=O)N1CCN(Cc2cc3nc(-c4cccc5[nH]ncc45)nc(N4CCOCC4)c3s2)CC1` [Pictilisib (dimethanesulfonate)], the “kinase-Nluc reporter destabilization hit call” value was inactive: 0. For `N#CCNC(=O)c1ccc(-c2ccnc(Nc3ccc(N4CCOCC4)cc3)n2)cc1` [Momelotinib sulfate], the “kinase-Nluc reporter destabilization hit call” value was inactive: 0. In the case of `C[C@H](CCC(=O)NCCS(=O)(=O)O)[C@H]1CC[C@H]2[C@@H]3[C@@H](O)C[C@@H]4C[C@H](O)CC[C@]4(C)[C@H]3CC[C@]12C` [Tauroursodeoxycholate (sodium)], the “kinase-Nluc reporter destabilization hit call” value was inactive: 0.

In the case of `CN(C)C(=N)NC(=N)N` [Metformin (hydrochloride)], the “kinase-Nluc reporter destabilization hit call” value is inactive: 0. On to `C/C=C1\C(=O)C[C@H]2[C@@H]3CCC4=CC(=O)CC[C@]4(C)[C@H]3CC[C@]12C` [Guggulsterone], for which the “kinase-Nluc reporter destabilization hit call” value is inactive: 0. In the case of `Cn1cc(-c2cnc3ccc4ccc(CS(=O)(=O)NCc5ccccn5)cc4c(=O)c3c2)cn1` [MK-8033 (hydrochloride)], the “kinase-Nluc reporter destabilization hit call” value was inactive: 0. As for `C/C=C1\C(=O)C[C@H]2[C@@H]3CCC4=CC(=O)CC[C@]4(C)[C@H]3CC[C@]12C` [(Z)-Guggulsterone], the “kinase-Nluc reporter destabilization hit call” value is inactive: 0. `COc1cc2c(-c3cnn4cc(N5CCC(N6CCN(C)CC6)CC5)cnc34)ccnc2cc1F`: the “kinase-Nluc reporter destabilization hit call” value was inactive: 0.

For another assay, the target named is ERBB3 (UniProt P21860). The description is as above. Particulars: 2.5 µM; K562; 2-18 h.
Consider `C[C@H](Nc1cc(-c2cnn(C)c2)cc(Nc2cnccn2)n1)c1ccc(F)cc1` [Ilginatinib hydrochloride], for which the “kinase-Nluc reporter destabilization hit call” value was active: 1. Take `Cc1cccc(/C=N/Nc2cc(N3CCOCC3)nc(OCCc3ccccn3)n2)c1` [Apilimod]: the “kinase-Nluc reporter destabilization hit call” value is inactive: 0.

As for `Cc1ccc(NC(=O)c2ccc(CN3CCN(C)CC3)cc2)cc1Nc1nc(-c2cccnc2)cs1` [Masitinib (mesylate)], the “kinase-Nluc reporter destabilization hit call” value was inactive: 0.

Turning to `COc1cc2nccc(Oc3ccc(NC(=O)C4(C(=O)Nc5ccc(F)cc5)CC4)cc3)c2cc1OC` [Cabozantinib], the “kinase-Nluc reporter destabilization hit call” value was inactive: 0.

`Cc1cccc(-c2[nH]c(CNc3ccccc3F)nc2-c2ccc3ncnn3c2)n1` [Vactosertib (Hydrochloride)]: the “kinase-Nluc reporter destabilization hit call” value was inactive: 0.

Turning to `CC(C)Oc1ccc(-c2nn([C@@H](C)c3oc4ccc(F)cc4c(=O)c3-c3cccc(F)c3)c3ncnc(N)c23)cc1F` [Umbralisib (hydrochloride)], the “kinase-Nluc reporter destabilization hit call” value was inactive: 0. On to `CN(C)C(=O)c1cc2cnc(Nc3ccc(N4CCNCC4)cn3)nc2n1C1CCCC1` [Ribociclib succinate hydrate], for which the “kinase-Nluc reporter destabilization hit call” value is inactive: 0. On to `O=C(Nc1ccncc1)Nc1ccc(-c2nc(N3CCOCC3)nc(N3C4CCC3COC4)n2)cc1` [PKI-179 (hydrochloride)], for which the “kinase-Nluc reporter destabilization hit call” value was inactive: 0. On to `C=CC(=O)Nc1cc(Nc2nccc(-c3cn(C4CC4)c4ccccc34)n2)c(OC)cc1N(C)CCN(C)C` [Almonertinib (hydrochloride)], for which the “kinase-Nluc reporter destabilization hit call” value is inactive: 0. `C=CC(=O)Nc1cc2c(Nc3ccc(F)c(Cl)c3)ncnc2cc1C#CC(C)(C)N1CCN(C)CC1` [AV-412 (free base)]: the “kinase-Nluc reporter destabilization hit call” value is inactive: 0. Take `CNC(=O)c1cc(Oc2ccc(NC(=O)Nc3ccc(Cl)c(C(F)(F)F)c3)c(F)c2)ccn1` [Regorafenib]: the “kinase-Nluc reporter destabilization hit call” value is inactive: 0.

Source of the values: the supplement of paper PMC12823440, “Inhibitors supercharge kinase turnover through native proteolytic circuits” (Nature, 2025).
